Experimental data from patent US20190112392A1.
Residue numbers refer to the chain shown, from its start. No constants are given. Whether binding was seen depends on the method and setting. Some results given as binding are weak or reduced against the parent protein; the word gives no strength.

Chains of the proteins cited; added tags and fusions are not shown. Lines headed by an entry give the natural chain unless they say otherwise; changes in a name come on top.
UniProt P01848: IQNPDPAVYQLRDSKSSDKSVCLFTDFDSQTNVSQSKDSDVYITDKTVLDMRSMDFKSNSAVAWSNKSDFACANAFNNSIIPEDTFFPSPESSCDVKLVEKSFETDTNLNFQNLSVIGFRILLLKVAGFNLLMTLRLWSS
UniProt P01850: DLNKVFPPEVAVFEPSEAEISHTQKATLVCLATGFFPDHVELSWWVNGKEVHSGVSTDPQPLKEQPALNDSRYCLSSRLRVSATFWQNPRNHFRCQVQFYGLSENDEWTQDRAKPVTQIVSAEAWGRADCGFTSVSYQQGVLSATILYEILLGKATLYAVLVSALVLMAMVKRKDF

B1: T0170055A02 (VHH, not shown: small tags and cut ends)
VHH: EVQLVESGGGLVQPGGSLRLSCAASGDVHKINILGWYRQAPAKEREMVAHITIGDATDYADSAKGRFTISRDEAKNMVYLQMNSLKPEDTAVYFCRAYSRIYPYNYWGQGTLVTVSS
B2: T0170068G05 (VHH, not shown: small tags and cut ends)
VHH: VQLVEESGGGLVQPGGSLRLSCITSGETFKINIWGWYRQAPGKQRELVASLTIGGATNYADSVKGRFTISEDSAKNTVYLQMNSLKPEDTAVYFCNAKSRIYPYDYWGRGTQVTVSS
B3: T0170061G01 (VHH, not shown: small tags and cut ends)
VHH: EVQLVESGGGLVQPGGSLRLSCAASGEIGRINFYRWYRQAPGNQREVVATITIADKTDYADSAKGRFTISRDESRNMVYLQMSSLKPEDTAVYFCHAGSRLYPYDYWGQGTQVTVSS
B4: T0170056G05 (VHH, not shown: small tags and cut ends)
VHH: B1 VHH with A23V, I33F, A42G, M47K, T52S, A56Q, A74S, Y98F, N105D

How the values were obtained:
[1] = molecular target: soluble recombinant cynomolgus TCR alpha/beta-zipper protein (cynomolgus/rhesus monkey); assay: BLI (Octet RED384), cynomolgus TCR α/β-zipper on the sensor, Nanobody as analyte
[2] = molecular target: soluble recombinant cynomolgus TCR alpha/beta-zipper protein (cynomolgus/rhesus monkey); assay: ELISA, coated soluble cynomolgus TCR-zipper
[3] = molecular target: T1, T cell receptor alpha/beta on purified primary human T cells (human) (UniProt P01848+P01850); assay: flow cytometry, purified primary human T cells
[4] = molecular target: T1, T cell receptor alpha/beta on purified primary human T cells (human); assay: flow cytometry on purified primary human T cells, MCF
[5] = molecular target: soluble recombinant cynomolgus TCR alpha/beta-zipper protein (cynomolgus/rhesus monkey); assay: ELISA, 2 µg/ml directly coated soluble recombinant cynomolgus TCR α/β-zipper protein, OD 450 nm
[6] = molecular target: T1, T cell receptor alpha/beta on purified primary human T cells (human); assay: flow cytometry on purified primary human T cells, MCF [cont']

Binder | binding [1] | binding [2] | binding [3] | binding [4] | binding [5] | binding [6]
B1 | binds | binds | binds | binds | binds | –
B2 | – | binds | binds | – | binds | binds
B3 | – | no binding (tested: >1E7 (M, as printed)) | binds | – | – | binds
B4 | binds | binds | – | – | binds | –
